This is an account of results in article PMC9512081.

By UniProt entry, the sequences of proteins in these tests, tags left out.
UniProt Q61686: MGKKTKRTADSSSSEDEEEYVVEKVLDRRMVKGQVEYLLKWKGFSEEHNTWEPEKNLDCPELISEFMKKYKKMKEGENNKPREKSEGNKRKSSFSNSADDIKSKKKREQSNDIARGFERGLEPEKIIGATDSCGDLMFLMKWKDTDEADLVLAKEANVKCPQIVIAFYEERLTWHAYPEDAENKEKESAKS
UniProt P23198: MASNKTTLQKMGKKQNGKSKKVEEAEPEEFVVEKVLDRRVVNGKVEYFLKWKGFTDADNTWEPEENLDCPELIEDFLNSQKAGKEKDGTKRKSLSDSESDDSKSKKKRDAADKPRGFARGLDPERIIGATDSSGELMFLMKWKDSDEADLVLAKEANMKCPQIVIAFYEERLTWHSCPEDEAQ

Results are given in words; binding and its absence hold for the method and conditions named. In cells and extracts the contact can be indirect. Some binding calls cover weakened binding; strength is not graded here.

Experiment [1] deals with Heterochromatin protein 1α (HP1α), mouse (mouse (endogenous in E13.5 cortex)) (UniProt Q61686). Briefly: co-IP; IP with anti-HP1γ or anti-HP1α antibody on Dynabeads Protein A from Benzonase-treated nuclear extracts of E13.5 wild-type mouse cortex, 150 mM NaCl final, overnight at 4°C; Western blots for POGZ and ADNP.
The target in experiment [2] is Heterochromatin Protein 1γ (HP1γ), mouse (mouse (endogenous in E13.5 cortex)) (UniProt P23198). Described as above.

B1: ADNP, mouse (protein, UniProt Q9Z103 1-1108)
chain: MFQLPVNNLGSLRKARKTVKKILSDIGLEYCKEHIEDFKQFEPNDFYLKNTTWEDVGLWDPSLTKNQDYRTKPFCCSACPFSSKFFSAYKSHFRNVHSEDFENRILLNCPYCTFNADKKTLETHIKIFHAPNSSAPSSSLSTFKDKNKNDGLKPKQADNVEQAVYYCKKCTYRDPLYEIVRKHIYREHFQHVAAPYIAKAGEKSLNGAVSLGTNAREECNIHCKRCLFMPKSYEALVQHVIEDHERIGYQVTAMIGHTNVVVPRAKPLMLIAPKPQDKKGMGLPPRISSLASGNVRSLPSQQMVNRLSIPKPNLNSTGVNMMSNVHLQQNNYGVKSVGQSYGVGQSVRLGLGGNAPVSIPQQSQSVKQLLPSGNGRSFGLGAEQRPPAAARYSLQTANTSLPPGQVKSPSVSQSQASRVLGQSSSKPPPAATGPPPSNHCATQKWKICTICNELFPENVYSVHFEKEHKAEKVPAVANYIMKIHNFTSKCLYCNRYLPTDTLLNHMLIHGLSCPYCRSTFNDVEKMAAHMRMVHIDEEMGPKTDSTLSFDLTLQQGSHTNIHLLVTTYNLRDAPAESVAYHAQNNAPVPPKPQPKVQEKADVPVKSSPQAAVPYKKDVGKTLCPLCFSILKGPISDALAHHLRERHQVIQTVHPVEKKLTYKCIHCLGVYTSNMTASTITLHLVHCRGVGKTQNGQDKTNAPSRLNQSPGLAPVKRTYEQMEFPLLKKRKLEEDADSPSCFEEKPEEPVVLALDPKGHEDDSYEARKSFLTKYFNKQPYPTRREIEKLAASLWLWKSDIASHFSNKRKKCVRDCEKYKPGVLLGFNMKELNKVKHEMDFDAEWLFENHDEKDSRVNASKTVDKKHNLGKEDDSFSDSFEHLEEESNGSGSPFDPVFEVEPKIPSDNLEEPVPKVIPEGALESEKLDQKEEEEEEEEEDGSKYETIHLTEEPAKLMHDASDSEVDQDDVVEWKDGASPSESGPGSQQISDFEDNTCEMKPGTWSDESSQSEDARSSKPAAKKKATVQDDTEQLKWKNSSYGKVEGFWSKDQSQWENASENAERLPNPQIEWQNSTIDSEDGEQFDSMTDGVADPMHGSLTGVKLSSQQA
For B1, the binding result is on record as “no binding” in experiment [1] and “binds” in experiment [2].

B2: Pogo Transposable Element with ZNF Domain protein (POGZ), mouse (protein, UniProt Q8BZH4 1-1409)
chain: MADTDLFMECEEEELEPWQKISDVIEDSVVEDYNSVDKTTSVSVSQQPVSAPVPIAAHASVAGHLSTSTTVSNSGAQNSDSTKKTLVTLIANNNAGNTLVQQGGQPLILTQNPAPGLGTMVTQPVLRPVQVMQNANHVTSSPVASQPIFITTQGFPVRNVRPVQNAMNQVGIVLNVQQGQTVRPITLVPAPGTQFVKPTVGVPQVFSQMTPVRPGSTMPVRPTTNTFTTVIPATLTIRSTVPQSQSQQTKSTPSTSTTPTATQPTSLGQLAGQPPGQSNQTSNPKLAPSFPSPPAVSIASFVTVKRPGVTGENSNEVAKLVNTLNTVPSLGQSPGPVVVSNNSSAQRTSGPESSVKVTSSIPVFDLQDGGRKICPRCNAQFRVTEALRGHMCYCCPEMVEYQKKGKSLDAEPSVPSAAKPSSPEKTAPVTSTPSSTPIPALSPPTKVPEPNENAGDAVQTKLIMLVDDFYYGRDGGKAAQLTSFPKVATSFRCPHCTKRLKNNIRFMNHMKHHVELDQQNGEVDGHTICQHCYRQFSTPFQLQCHLENVHSPYESTTKCKICEWAFESEPLFLQHMKDTHKPGEMPYVCQVCQYRSSLYSEVDVHFRMIHEDTRHLLCPYCLKVFKNGNAFQQHYMRHQKRNVYHCNKCRLQFLFAKDKIEHKLQHHKTFRKPKQLEGLKPGTKVTIRASRGQPRTVPVSSNDAPSGTLQEAAALTSTDPLPVFLYPPVQRNIQKRAVRKMSVMGRQTCLECSFEIPDFPNHFPTYVHCSLCRYSTCCSRAYANHMINNHVPRKSPKYLALFKNSVSGIKLACTSCTFATSVGDAMAKHLVFNPSHRSSNILPRGLSWMSHLRPGQASERVFDWSMKNTYLPPPLVPNKAATVKPVGVTPAEPQELAGPVLQALPSPASTATPPATPTHPQPSALPPSATEGTECLNVSEQEEGSPVTQDPEPASGGGGGSGVGKKEQLSVKKLRVVLFALCCNTEQAAEHFRNPQRRIRRWLRRFQASQGENLEGKYLSFEAEEKLAEWVLIQREQQLPVNEETLFQKATKIGRSLEGGFKISYEWAVRFMLRHHLTPHARRAVAHTLPKHVAENAGLFIEFVQRQIHNQDLPLSMIVAIDEISLFLDTEVLSSDDRKENALQTVGTGEPWCDVVLAILADGTVLPTLVFFRGQANRFANVPDSILLEAKDSGYSDDEIMELWSTRVWKKHTACQHSKSMLVMDCHRTHLSEEVLALLSASSTLPAVVPAGCSSKIQPLDVCIKRTVKNFLHKKWKEQAREMADAACDSDVLLQLVLVWLGEVLGVIGDSPELVQRSFLVASVLPGPDGNVNSPTRNADMQEELIASLEEQLKLNGEQSEEHSASAPRPRSSPEETVEPESLHQLFEGESETESFYGFEEADLDLMEI
Take B2: the binding entry in experiment [1] is given as “no binding”; in experiment [2], “binds”.
